The supplement of paper PMC12889115
The list shows a part of the results. Values are raw readings; no control value is given beside them.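 First-pass screen: polymyxin B was added at a level that permeabilizes the Salmonella outer membrane while sparing the inner membrane. DMSO wells, with and without polymyxin B, defined maximum growth. Because plates differed from one another, each plate's data were ranked separately and the compounds with the lowest OD600 were carried forward as hits.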

Test system: Salmonella enterica serovar Typhimurium SL1344
Experiment: bacterial growth OD600 after 18 h with compound and polymyxin B; higher = more bacterial growth (less inhibition)
Conditions: 50 µM, Mueller-Hinton broth

| Structure (SMILES) | bacterial growth OD600 (polymyxin B 0.75 µg/mL) | bacterial growth OD600 (polymyxin B 1 µg/mL) |
| --- | --- | --- |
| CO[C@H]1[C@H](NC(=O)Cc2ccccc2)c2ccccc2C12CCN(Cc1ccc(NC(C)=O)cc1)CC2 | 1.03 | – |
| COc1ccccc1-c1cn2c(C(=O)N(C)CCc3ccccn3)csc2n1 | – | 1.03 |
| C=CCO[C@H]1[C@H](NC(=O)COC)c2ccccc2C12CCN(Cc1ccc(F)cc1Cl)CC2 | 0.952 | – |
| CC(C)/C=C/C(=O)NCCN1Cc2ccccc2OC(c2ccccc2F)C1 (stereo unspecified) | 0.006 | – |
| COc1cccc(OCc2nc(C(=O)N3CCCCCC3)co2)c1 | – | 1.06 |
| Cc1cccc(N2CCN(C(=O)CCC3(Cc4ccc5ccccc5c4)CCC(=O)N3)CC2)c1C (stereo unspecified) | 0.004 | – |
| Cc1cc2ncn(Cc3cc(C(=O)N(C)C4CCOCC4)n[nH]3)c2cc1C | – | 0.865 |
| O=C(NCc1nc(NCCCc2ccccc2)c2ccccc2n1)c1ccoc1 | 0.865 | – |
| CN(CCc1cnn(C)c1)c1nc2nonc2nc1NC1CCCC1 | – | 0.923 |
| Cc1cc(C)n(-c2cccc(C(=O)NCC3Cc4cc(F)cc(-c5cccnc5)c4O3)c2)n1 (stereo unspecified) | 0.333 | – |
| COc1ccc(CN2Cc3ccccc3OC(C)C2)c(OC)c1OC (stereo unspecified) | 0.807 | – |
| CCn1cc(CN2CCC(n3nccc3NC(=O)C3CCCC3)CC2)cn1 | – | 0.847 |
| Cc1c(C(=O)N2CCC(N3CCCC(O)C3)CC2)sc2ncnc(NCCC3=CCCCC3)c12 (stereo unspecified) | 0.881 | – |
| COc1ccc(-c2ncc(CN3CC[C@@H](N4CCC(O)CC4)[C@H](O)C3)cn2)cc1 | – | 0.872 |
| CCOC(=O)N1CCC(NC(=O)c2cc(NC(C)=O)c3c(c2)ncn3CCc2ccccn2)CC1 | 0.857 | – |
| O=C1CC(NS(=O)(=O)N2CCCC2)CN1Cc1ccc(F)cc1 (stereo unspecified) | – | 0.914 |

| Structure (SMILES) | bacterial growth OD600 (polymyxin B 0.75 µg/mL) | bacterial growth OD600 (polymyxin B 1 µg/mL) |
| --- | --- | --- |
| COc1ccc(F)c(CN2CCc3c(C(=O)NCc4ccccc4OC)c(OC)cc(=O)n3CC2)c1 | 0.828 | – |
| CCn1ccnc1CNCc1cccnc1Oc1ccc(F)c(F)c1 | 0.745 | – |
| COc1cccc(-c2ccc(NC(=O)C3CCCN3S(C)(=O)=O)cc2)c1 (stereo unspecified) | 0.587 | – |
| Cc1ncoc1C(=O)N1CCOC(Cc2ccccc2)C1 (stereo unspecified) | 0.88 | – |
| COc1cccc(-c2cnc(-c3ccncc3)nc2C2CCN(C(=O)c3ccc4c(c3)OCO4)CC2)c1 | 0.004 | – |
| CCN1CCN(C2(C(=O)N3CCCC(OC)C3)Cc3ccccc3C2)CC1 (stereo unspecified) | 0.782 | – |
| CCN1C(=O)CC(CC(=O)N(C)CCc2cn[nH]c2)(c2cccc(C(F)(F)F)c2)C1=O (stereo unspecified) | 0.797 | – |
| COc1cc(CC2(CCC(=O)NCCc3ccc(C(F)(F)F)cc3)CCC(=O)N2)ccc1F (stereo unspecified) | 0.742 | – |
| NC(=O)[C@@H]1CCCN1c1ccc(-c2nc(CCCc3ccccc3)no2)cn1 | 0.63 | – |
| CC(Cc1cnccn1)Nc1ccc(-c2nc(C3CC3)no2)cn1 (stereo unspecified) | – | 1.1 |
| COc1cccc(OCc2cc(C(=O)N3CCCC(CCCO)C3)no2)c1 (stereo unspecified) | – | 0.948 |
| CC(NC(=O)C1CCN(C)CC1)c1nnc2n1CCN(Cc1ccc3c(c1)Cc1ccccc1-3)CC2 (stereo unspecified) | 0.859 | – |
| Cc1ncoc1C(=O)N1CCC2(CCCN(Cc3cccc(F)c3F)C2=O)C1 (stereo unspecified) | – | 1.04 |
| COc1ccc(NC2CCCN(C(=O)C3(C)CCCCC3)C2)cc1OC (stereo unspecified) | – | 0.88 |
| O=C(NCCCN1CCOCC1)c1ccc2oc(CCc3ccccc3)nc2c1 | – | 0.907 |

A portion taken from the entries so far:

| Structure (SMILES) | bacterial growth OD600 (polymyxin B 0.75 µg/mL) | bacterial growth OD600 (polymyxin B 1 µg/mL) |
| --- | --- | --- |
| Cc1ncoc1C(=O)N1CCOC(Cc2ccccc2)C1 (stereo unspecified) | 0.88 | – |
| COc1cccc(-c2cnc(-c3ccncc3)nc2C2CCN(C(=O)c3ccc4c(c3)OCO4)CC2)c1 | 0.004 | – |
